Assay results taken from PubChem BioAssay AID2685 (National Center for Advancing Translational Sciences (NCATS), 2010).
In all, about 320,000 compounds went through this assay and about 2,100 (0.66%) were called active. Inconclusive means that the source gave no clear call. Such entries were picked first, then a sample of the others. Calls come from the whole dose curve; as a rule, active = well fitted inhibition curve with a large enough effect in the signal ratio, with a control signal flat (not every such curve was filed as active); inconclusive = small, poorly fitted or top-dose-only effect, or effect the other way, or a change in a side signal; inactive = flat fitted curve, though single readings scatter; the % refers to the signal ratio. A potency beside an inconclusive call is a rough fit, not a confirmed value.

Test: qHTS Assay for Lipid Storage Modulators in Drosophila S3 Cells
Conditions: BODIPY lipid droplet fluorescence, 18-24 h, cells fed with added oleic acid; lipid storage change, negative = inhibition: at 46.1 µM (top of the series) unless noted
Procedure, shortened: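 Drosophila S3 cells got compounds at several concentrations plus oleic acid (400 uM solution). Laser-scanning cytometry with 488 nm excitation read lipid droplets at 500-530 nm and cells at 575-640 nm. Percent activity was relative to 20 uM Triacsin C.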
% is set by controls: 0 for no effect and ±100 for the full control effect; potency is the fitted concentration of half-maximal effect.

Structure (SMILES)	lipid storage change, negative = inhibition	Potency
COC(=O)c1cc(OC)c(OC)c(OC)c1NC(=O)c1ccc(S(=O)(=O)N(C)C)cc1	inactive	
COc1ccc(NC(=O)C2=CC(c3cccs3)=NS(=O)(=O)N2C)cc1		inconclusive: 4.11 µM [falling, full curve]
COc1ccc(N(CC(=O)NC2CCCC2)C(=O)CCC(=O)Nc2cc(C)on2)c(OC)c1	inconclusive: 38.2%	
CCCCCOc1ccc(C(=O)OCC(=O)Nc2cc(C)on2)cc1	inconclusive	
Cc1ccc(NC(=O)CN2C(=O)CCSc3ccc(S(=O)(=O)N4CCCC4)cc32)cc1	inconclusive: 54.6%	
CCCn1c(=O)c(C(=O)NCCc2ccc(OC)c(OC)c2)c(O)c2ccccc21		inconclusive: 0.731 µM [falling, single point]
CC(C)(C)Nc1nc(-c2ccccn2)nc2ccccc12		inconclusive: 29.1 µM [cytotoxic, single point]
NNC(=O)c1ccc(Cn2cc(Cl)cn2)o1	inconclusive: 2.74%	
CC1=NN(c2ccc(C(=O)O)cc2)C(=O)/C1=C\c1ccc(OC(=O)c2cccs2)cc1	inconclusive: 49.3%	
CN1C(=O)c2cccc(NC(=O)C3CCCCC3)c2C1=O	inconclusive: -8.23%	
Cn1ccnc1Sc1nc(Nc2cccc(Cl)c2)nc(N2CCOCC2)n1	inconclusive: 21.2%	
Cc1ccc(Nc2c([N+](=O)[O-])cc(C(=O)N3CC(=O)Nc4ccccc43)cc2[N+](=O)[O-])c(C)c1	inconclusive: -24.3%	
O=C(CSc1nnc(C2CC2)n1CC1CCCO1)Nc1cccc(Cl)c1 (stereo not drawn)	inconclusive: -80.1%	
Cc1ccc(OCC(=O)Nc2ccc(C)c(F)c2)c([N+](=O)[O-])n1	inconclusive	
COCCN(CC(=O)Nc1cc(Cl)ccc1-n1cncn1)Cc1nc2ccccc2c(=O)[nH]1	inconclusive: -18.9%	
COc1cc(CNc2ccc(N3CCN(C(C)=O)CC3)cc2)ccc1OCc1ccccc1		inconclusive: 0.0731 µM [falling, full curve, poor fit]
O=C(NC1CCN(C(=O)NCc2ccccc2)CC1)c1ccc(F)cc1		inconclusive: 3.66 µM [activator, single point]
O=C(NCCc1ccccc1)C1CCN(S(=O)(=O)c2ccc(-c3nn[nH]n3)cc2)CC1		inconclusive: 0.291 µM [falling, full curve, poor fit]
CCOc1ccc2nc(SCC(=O)Nc3cc4c(cc3C(C)=O)OCO4)[nH]c2c1	inconclusive: -29.9%	
O=c1[nH]c(Nc2ccc3c(c2)OCCO3)nnc1Cc1ccccc1		inconclusive: 1.16 µM [rising, full curve]
O=C(O)C1CCCCC1C(=O)Nc1nc(-c2ccc(Cl)s2)cs1 (stereo not drawn)	inconclusive: -20.4%	
CCC(C)(C)NC(=O)C(c1cccnc1)N(C(=O)c1csnn1)c1ccccc1 (stereo not drawn)	inconclusive: -6.17%	
O=C(N/N=C/c1ccccc1)c1sccc1OCc1ccc(F)cc1	inconclusive: -23.2%	
O=c1c(Cl)cc(Cl)nn1-c1ccccc1		inconclusive: 29.1 µM [falling, single point]

Structure (SMILES)	lipid storage change, negative = inhibition	Potency
Fc1ccccc1/C=N/Nc1nc2ccccc2o1	inconclusive: -0.377%	
O=C(c1ccco1)N1CCN(C(=O)c2ccc(Cn3cc(Br)cn3)o2)CC1	inconclusive: -11.6%	
CCOC(=O)C1CCCN(S(=O)(=O)c2ccc(S(N)(=O)=O)cc2)C1 (stereo not drawn)	inconclusive: 11.7%	
CNC(=O)c1csc(-c2ccncc2)n1	inconclusive: 57.6%	
CCCc1nnc(SCC(=O)Nc2nc(C)cs2)n1CCOC		inconclusive: 25.9 µM [activator, single point]
Cc1ccc(S(=O)(=O)N2CCN(C(=O)COC(=O)/C=C/c3ccccc3[N+](=O)[O-])CC2)c(C)c1	inconclusive	
COc1ccc(N2C(=O)C3CCCN3C2c2ccc(C)cc2)cc1 (stereo not drawn)	inconclusive: -18.1% [at 9.22 µM]	
Cc1cccc(NC(=O)c2ccccc2NC(=O)c2ccccc2)n1	inconclusive: 48.4%	
CC(C)c1ccc(C(=O)CSc2n[nH]c(-c3ccncc3)n2)cc1		inconclusive: 29.1 µM [rising, single point]
COC(=O)c1ccc(CN2CCCC(CCC(=O)NCc3ccc(C)o3)C2)cc1 (stereo not drawn)	inconclusive: 7.22%	
O=C(Cn1nnc(-c2ccccc2F)n1)Nc1ccc2c(c1)OCO2	inconclusive: -17.2%	
Nc1nnc(SCC(=O)Nc2ccc3c(c2)OCCO3)s1	inconclusive: -27.8%	
CN(NS(C)(=O)=O)c1c(C#N)c(C(F)(F)F)nn1C		inconclusive: 6.51 µM [falling, single point]
CC(O)CNCCOc1cccc(Oc2ccccc2)c1 (stereo not drawn)		inconclusive: 6.51 µM [cytotoxic, partial curve]
Cc1cccc(N2C(=O)CC(Sc3nccc(C)n3)C2=O)c1 (stereo not drawn)		inconclusive: 0.13 µM [activator, full curve, poor fit]
CSCCC(NC(=O)c1ccccc1Cl)C(=O)NCC(c1cccs1)N(C)C (stereo not drawn)	inconclusive: -32.1%	
Cc1cc(C(=O)Cn2nc(C(=O)O)c3ccccc3c2=O)c(C)n1CC(F)(F)F	inconclusive: 6.1%	
CCOC(=O)N1CCC(Nc2c(-c3ccc(C)c(C)c3)c(=O)c2=O)CC1	inconclusive: -21%	
CCN(CC)CCNCc1ccc(Br)cc1OCC(=O)NCc1ccccc1		inconclusive: 0.0052 µM [falling, full curve, poor fit]
CC1(C)CC(=O)C2=C(C1)N(c1cccnc1)C(N)=C(C#N)C2c1cccs1 (stereo not drawn)	inconclusive: -3.52%	
Cc1cc(-c2ccco2)c(C#N)c2nc3ccccc3n12		inconclusive: 2.31 µM [rising, partial curve, poor fit]
CCOc1ccc(Cn2c(=O)oc3ccccc32)cc1		inconclusive: 3.66 µM [activator, single point]
Cc1ccc(C(=O)N/N=C\c2cccn2C)cn1	inconclusive: 19.6%	
CCN(CC)S(=O)(=O)N1CCC(C(=O)NCc2ccc3c(c2)OCO3)CC1	inconclusive: 2.81%	

A portion taken from the entries so far, as a working copy:
Structure (SMILES)	lipid storage change, negative = inhibition	Potency
Cc1ccc(C(=O)N/N=C\c2cccn2C)cn1	inconclusive: 19.6%	
CCN(CC)S(=O)(=O)N1CCC(C(=O)NCc2ccc3c(c2)OCO3)CC1	inconclusive: 2.81%	
